The source of these data is paper PMC8121353.

Chains of the proteins cited; added tags and fusions are not shown. Residues count along the entry.
UniProt Q04206, residues 190-291: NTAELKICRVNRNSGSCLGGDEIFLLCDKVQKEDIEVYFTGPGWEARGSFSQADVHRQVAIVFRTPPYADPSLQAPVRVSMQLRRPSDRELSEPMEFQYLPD
UniProt P19838, residues 247-352: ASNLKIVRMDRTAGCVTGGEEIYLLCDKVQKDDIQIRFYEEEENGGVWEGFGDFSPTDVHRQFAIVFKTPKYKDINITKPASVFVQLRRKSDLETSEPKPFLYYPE

These are yes or no findings as the source states them, for the method shown. In cells and extracts the contact can be indirect. Some binding calls cover weakened binding; strength is not graded here.

The assay deals with p65-mKGN (p65 residues 190-291 fused to the N-terminal fragment of monomeric Kusabira-Green) (UniProt Q04206). The assay is described as follows: split reporter; BiFC reconstitution: mKGC fusion (p50-mKGC, or cDNA of each trapped fusion in pPB-PCMV-IRES-PuroR) introduced into the bait strain HeLa-p65-mKGN; mKG fluorescence by flow cytometry.

“p50 (residues 247-352)-mKGC (from UniProt P19838 247-352) (domain or fragment)”: the binding entry is on record as “binds”.
